Taken from: PubChem BioAssay AID1159596 (NIAID, 2016)

Purpose: 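Which toll-like receptor signalling genes are needed for TNF promoter activity driven by peptidoglycan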 (primary screen)
System: human THP1 B5 monocytic reporter cells made macrophage-like with PMA
Reagent: single siRNA against human genes
Time to read-out: assayed 48 to 72 hours after siRNA transfection; peptidoglycan stimulation lasted 4 hours
Challenge: Staphylococcus aureus peptidoglycan for 4 hours; dose not given
Measured: 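Mean over replicate screens of a robust z per siRNA from the dual luciferase TNF promoter reporter after 4 h peptidoglycan, median/MAD normalised, relative to negative controls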
Direction: TNF reporter z-score: higher = stronger TNF promoter reporter response to peptidoglycan
Call rule: In these data the active calls have TNF reporter z-score, replicate mean at about -1.5 or lower, or at about 1.5 or higher
Meaning of the calls: active = reporter shifted beyond cut (either direction); inactive = reporter near control level
This is one part, drawn at random, of 756 reagents. In the full data, 143 (19%) were called active. 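Active means the reporter moved past about ±1.5 in either direction; scores are per single siRNA, not per gene; peptidoglycan dose not given.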 Entries without a mark were called inactive. Reagents against one gene are numbered here. Not given: the amount of reagent.

TLR1 #1 scored TNF reporter z-score, replicate mean -0.0795.
Against TLR1 #2 the deposit lists TNF reporter z-score, replicate mean -1.19.
Depletion of TLR1 #3 resulted in: TNF reporter z-score, replicate mean -1.42.
TLR1 #4 scored TNF reporter z-score, replicate mean 0.807.
Depletion of TLR1 #5 came out at: TNF reporter z-score, replicate mean -0.429.
TLR1 #6 scored TNF reporter z-score, replicate mean -0.311.
After knock-down of CD14 #1, the screen gave TNF reporter z-score, replicate mean 0.492.
CD14 #2 gave TNF reporter z-score, replicate mean -0.181.
For CD14 #3 the deposit lists TNF reporter z-score, replicate mean 1.17.
Knock-down of CD14 #4 came out at: TNF reporter z-score, replicate mean -0.494.
Knock-down of CD14 #5 came out at: TNF reporter z-score, replicate mean -0.981.
Depletion of CD14 #6 gave: TNF reporter z-score, replicate mean 0.407.
For DUSP2 #1 the deposit lists TNF reporter z-score, replicate mean -0.372.
For DUSP2 #2 the deposit lists TNF reporter z-score, replicate mean -0.85.
For DUSP2 #3, the entry reads TNF reporter z-score, replicate mean -3.92 (active).
Knock-down of DUSP2 #4 gave: TNF reporter z-score, replicate mean 0.245.
After knock-down of DUSP2 #5 the results were TNF reporter z-score, replicate mean 0.0638.
Depletion of DUSP2 #6 resulted in: TNF reporter z-score, replicate mean -0.424.
With knock-down of PTPN6 #1, the screen gave TNF reporter z-score, replicate mean -1.06.
With knock-down of PTPN6 #2, the record shows TNF reporter z-score, replicate mean 1.15.
Against PTPN6 #3, the entry reads TNF reporter z-score, replicate mean -0.176.
Against PTPN6 #4, the entry reads TNF reporter z-score, replicate mean -1.69 (active).
Silencing of PTPN6 #5 resulted in: TNF reporter z-score, replicate mean -1.61 (active).
After knock-down of PTPN6 #6 the results were TNF reporter z-score, replicate mean -1.19.

In a second layout: entries from further up.
{"Gene":"CD14","siRNA no.":1,"TNF reporter z-score, replicate mean":0.492}
{"Gene":"CD14","siRNA no.":2,"TNF reporter z-score, replicate mean":-0.181}
{"Gene":"CD14","siRNA no.":3,"TNF reporter z-score, replicate mean":1.17}
{"Gene":"CD14","siRNA no.":4,"TNF reporter z-score, replicate mean":-0.494}
{"Gene":"CD14","siRNA no.":5,"TNF reporter z-score, replicate mean":-0.981}
{"Gene":"CD14","siRNA no.":6,"TNF reporter z-score, replicate mean":0.407}

Continued:
For CHUK #1, the entry reads TNF reporter z-score, replicate mean -1.1.
Silencing of CHUK #2 resulted in: TNF reporter z-score, replicate mean -0.201.
CHUK #3 scored TNF reporter z-score, replicate mean -0.825.
Knock-down of CHUK #4 gave: TNF reporter z-score, replicate mean -0.37.
Knock-down of CHUK #5 resulted in: TNF reporter z-score, replicate mean -0.71.
After knock-down of CHUK #6, the record shows TNF reporter z-score, replicate mean 0.589.
Knock-down of ITGAM #1 came out at: TNF reporter z-score, replicate mean 0.927.
ITGAM #2 showed TNF reporter z-score, replicate mean -1.39.
With knock-down of ITGAM #3, the record shows TNF reporter z-score, replicate mean -0.323.
ITGAM #4 showed TNF reporter z-score, replicate mean -0.756.
Knock-down of ITGAM #5 gave: TNF reporter z-score, replicate mean -0.223.
After knock-down of ITGAM #6 the results were TNF reporter z-score, replicate mean 0.506.
MAP2K6 #1 scored TNF reporter z-score, replicate mean -0.59.
With knock-down of MAP2K6 #2, the screen gave TNF reporter z-score, replicate mean 0.138.
After knock-down of MAP2K6 #3, the screen gave TNF reporter z-score, replicate mean 0.258.
Silencing of MAP2K6 #4 gave: TNF reporter z-score, replicate mean -0.00803.
Depletion of MAP2K6 #5 resulted in: TNF reporter z-score, replicate mean 0.284.
MAP2K6 #6 gave TNF reporter z-score, replicate mean 0.505.
MAPK10 #1 showed TNF reporter z-score, replicate mean -0.954.
After knock-down of MAPK10 #2, the record shows TNF reporter z-score, replicate mean 0.285.
MAPK10 #3 gave TNF reporter z-score, replicate mean -0.565.
Silencing of MAPK10 #4 resulted in: TNF reporter z-score, replicate mean 0.135.
MAPK10 #5 scored TNF reporter z-score, replicate mean 0.671.
After knock-down of MAPK10 #6, the screen gave TNF reporter z-score, replicate mean 0.174.
